Results from US20200033363A1 (GARVAN INSTITUTE OF MEDICAL RESEARCH, published 2020).
No constants are given. Whether binding was seen depends on the method and setting. Some binding calls cover weakened binding; strength is not graded here. For some assays here: Where a sequence is shown, tags or fusion partners need not be part of it.

T1: human VEGFA 121 (human, UniProt P15692-9 27-147, biotinylated (BLI assays))
T1 construct: also called biotinylated VEGF
T1 sequence (looked up): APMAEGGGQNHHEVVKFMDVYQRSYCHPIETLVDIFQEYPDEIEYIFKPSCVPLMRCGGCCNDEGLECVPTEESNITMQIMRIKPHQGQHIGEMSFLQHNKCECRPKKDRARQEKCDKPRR


Legend:
human VEGFA 121 [1] = target: T1, human VEGFA 121; experiment: SEC-MALLS of VLD9-Fc (short mutant hinge) mixed with VEGFA121
human VEGFA 121 [2] = target: T1, human VEGFA 121; experiment: MALLS (FIG. 16B)
human VEGFA 121 [3] = target: T1, human VEGFA 121; experiment: MALLS
[4] = target: vascular endothelial growth factor A (VEGFA) (UniProt P15692); experiment: phage display selection and soluble fragment ELISA
[5] = target: vascular endothelial growth factor A (VEGFA) (UniProt P15692); experiment: X-ray crystal structure of VLD9-VEGFA

| binding (human VEGFA 121 [1]) | binding (human VEGFA 121 [2]) | binding (human VEGFA 121 [3]) | binding [4] | binding [5] | Binder |
| --- | --- | --- | --- | --- | --- |
| binds | binds | binds |  |  | VLD9-Fc with short mutant hinge (Fc fusion, not shown: a dimerising Fc or GST) DIQMTQSPSSLSASVGDRVTITCRASRAIAAYLNWYQQKPGKAPKLLIYAYSDLQSGVPSRFSGSGSGTDFTLTISSLQPEDFATYYCQQVWANPYTFGQGTKVEIKRA |
|  |  |  | binds | binds | VLD9 homodimer (other, Homodimer of two identical human light chain variable domains selected on VEGF; Expressed generally as Ig5 and Ig12 were; also called VLD9 dimer; immunoglobulin VLD9) VL: DIQMTQSPSSLSASVGDRVTITCRASRAIAAYLNWYQQKPGKAPKLLIYAYSDLQSGVPSRFSGSGSGTDFTLTISSLQPEDFATYYCQQVWANPYTFGQGTKVEIKRA |
